In article PMC11053938:
These are yes or no findings as the source states them, for the method shown. Some results given as binding are weak or reduced against the parent protein; the word gives no strength.

Protein sequences, listed by entry. Tags and fused reporters are not part of them. Lines headed by an entry give the natural chain unless they say otherwise; changes in a name come on top. Residues count along the entry.
UniProt P01024: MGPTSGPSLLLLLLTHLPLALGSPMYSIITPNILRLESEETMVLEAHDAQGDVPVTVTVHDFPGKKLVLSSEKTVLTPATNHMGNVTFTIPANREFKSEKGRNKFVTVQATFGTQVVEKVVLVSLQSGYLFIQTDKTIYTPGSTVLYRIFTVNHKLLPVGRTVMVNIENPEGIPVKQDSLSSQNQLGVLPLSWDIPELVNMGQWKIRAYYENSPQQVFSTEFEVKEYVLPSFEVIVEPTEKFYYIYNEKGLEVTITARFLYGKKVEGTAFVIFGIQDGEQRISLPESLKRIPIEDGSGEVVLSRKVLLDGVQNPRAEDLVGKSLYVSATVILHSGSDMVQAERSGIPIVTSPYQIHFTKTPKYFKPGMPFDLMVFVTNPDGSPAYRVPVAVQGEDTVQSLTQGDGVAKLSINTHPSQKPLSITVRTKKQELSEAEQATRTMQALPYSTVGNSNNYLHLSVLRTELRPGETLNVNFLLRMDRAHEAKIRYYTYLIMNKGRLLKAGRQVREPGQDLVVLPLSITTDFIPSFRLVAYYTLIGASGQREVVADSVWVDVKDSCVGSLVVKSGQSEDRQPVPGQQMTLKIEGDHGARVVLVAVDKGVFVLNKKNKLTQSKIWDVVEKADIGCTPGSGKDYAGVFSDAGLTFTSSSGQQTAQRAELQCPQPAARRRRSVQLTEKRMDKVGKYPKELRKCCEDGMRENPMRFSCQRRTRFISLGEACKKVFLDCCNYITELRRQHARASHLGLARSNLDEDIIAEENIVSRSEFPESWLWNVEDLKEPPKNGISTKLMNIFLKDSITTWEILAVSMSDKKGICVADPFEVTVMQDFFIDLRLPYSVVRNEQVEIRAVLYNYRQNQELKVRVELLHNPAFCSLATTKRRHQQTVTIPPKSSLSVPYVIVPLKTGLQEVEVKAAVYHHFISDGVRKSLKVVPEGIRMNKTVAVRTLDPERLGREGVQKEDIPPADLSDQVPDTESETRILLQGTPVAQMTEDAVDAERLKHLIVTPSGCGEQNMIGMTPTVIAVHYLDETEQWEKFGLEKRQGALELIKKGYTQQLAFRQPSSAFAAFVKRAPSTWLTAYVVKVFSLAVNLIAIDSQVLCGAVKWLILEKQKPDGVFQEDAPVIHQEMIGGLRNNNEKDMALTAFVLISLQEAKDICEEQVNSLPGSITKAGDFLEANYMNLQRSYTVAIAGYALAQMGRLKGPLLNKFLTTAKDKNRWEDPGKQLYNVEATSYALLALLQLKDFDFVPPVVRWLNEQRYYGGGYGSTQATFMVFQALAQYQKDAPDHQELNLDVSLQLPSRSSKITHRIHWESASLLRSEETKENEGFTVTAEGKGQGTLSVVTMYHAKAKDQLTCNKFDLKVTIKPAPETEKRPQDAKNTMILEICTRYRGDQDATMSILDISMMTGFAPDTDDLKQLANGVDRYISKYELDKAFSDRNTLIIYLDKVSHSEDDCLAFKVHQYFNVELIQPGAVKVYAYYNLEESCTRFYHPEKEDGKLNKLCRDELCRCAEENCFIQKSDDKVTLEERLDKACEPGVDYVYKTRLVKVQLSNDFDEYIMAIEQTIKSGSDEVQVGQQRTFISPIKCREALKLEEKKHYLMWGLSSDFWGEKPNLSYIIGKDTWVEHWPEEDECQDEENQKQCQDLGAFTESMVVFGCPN
UniProt P08603, residues 19-1231: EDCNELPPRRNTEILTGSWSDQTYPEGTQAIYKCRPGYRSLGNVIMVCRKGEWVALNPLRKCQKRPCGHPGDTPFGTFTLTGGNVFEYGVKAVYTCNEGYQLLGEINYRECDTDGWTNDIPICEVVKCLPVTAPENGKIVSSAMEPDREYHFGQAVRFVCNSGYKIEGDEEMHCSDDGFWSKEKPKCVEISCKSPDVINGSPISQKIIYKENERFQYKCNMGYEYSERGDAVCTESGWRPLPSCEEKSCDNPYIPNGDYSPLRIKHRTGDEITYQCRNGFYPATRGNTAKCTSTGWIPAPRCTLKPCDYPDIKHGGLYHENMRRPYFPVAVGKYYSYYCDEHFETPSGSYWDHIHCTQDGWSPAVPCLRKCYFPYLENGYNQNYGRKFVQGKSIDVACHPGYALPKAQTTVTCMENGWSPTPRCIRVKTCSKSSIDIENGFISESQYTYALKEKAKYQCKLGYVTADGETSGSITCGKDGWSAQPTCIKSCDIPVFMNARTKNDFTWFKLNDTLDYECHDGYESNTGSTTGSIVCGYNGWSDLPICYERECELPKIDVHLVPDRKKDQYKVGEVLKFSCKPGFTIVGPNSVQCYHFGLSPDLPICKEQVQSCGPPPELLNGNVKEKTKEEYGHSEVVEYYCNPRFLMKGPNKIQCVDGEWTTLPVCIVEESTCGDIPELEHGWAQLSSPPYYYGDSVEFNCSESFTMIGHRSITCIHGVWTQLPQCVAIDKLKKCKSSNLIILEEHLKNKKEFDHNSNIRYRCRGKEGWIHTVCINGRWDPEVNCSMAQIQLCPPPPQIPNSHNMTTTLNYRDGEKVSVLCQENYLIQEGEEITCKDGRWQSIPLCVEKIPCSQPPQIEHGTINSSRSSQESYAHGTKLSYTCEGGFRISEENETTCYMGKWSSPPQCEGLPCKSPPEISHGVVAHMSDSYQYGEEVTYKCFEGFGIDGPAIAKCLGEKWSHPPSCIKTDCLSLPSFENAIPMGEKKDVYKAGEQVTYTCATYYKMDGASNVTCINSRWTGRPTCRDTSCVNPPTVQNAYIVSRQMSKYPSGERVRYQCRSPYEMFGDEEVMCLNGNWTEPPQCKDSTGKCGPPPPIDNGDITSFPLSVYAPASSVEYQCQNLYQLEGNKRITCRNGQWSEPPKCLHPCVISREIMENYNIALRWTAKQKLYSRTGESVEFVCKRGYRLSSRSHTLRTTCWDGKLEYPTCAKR

Target: C3b (UniProt P01024)
Experiment: SPR; Biacore; C3b immobilised to Fc2 at 1600 RU and Fc3 at 1450 RU and 950 RU; human CFH at 200 nM/100 nM, alone or with PolySia-NP at 1:20 dilution (10 min room temperature incubation); buffer alone as control; both purified

binding: binds
Substance: human complement factor H (from UniProt P08603 19-1231)
